For assay [1], the target named is ZTL 29–165 I151R (Arabidopsis thaliana) (UniProt Q94BT6). The experiment in a line: SEC; Superdex 200 10/300 analytical column in stabilizing buffer (50 mM Tris pH 7 or 50 mM Hepes pH 8 with 100 mM and 10% glycerol); apparent MW against standards; G80R in dark and light state; both purified.
For assay [2], the target named is T1, GI-GFP (GIGANTEA) (Arabidopsis thaliana) (UniProt Q9SQI2).
T1 sequence: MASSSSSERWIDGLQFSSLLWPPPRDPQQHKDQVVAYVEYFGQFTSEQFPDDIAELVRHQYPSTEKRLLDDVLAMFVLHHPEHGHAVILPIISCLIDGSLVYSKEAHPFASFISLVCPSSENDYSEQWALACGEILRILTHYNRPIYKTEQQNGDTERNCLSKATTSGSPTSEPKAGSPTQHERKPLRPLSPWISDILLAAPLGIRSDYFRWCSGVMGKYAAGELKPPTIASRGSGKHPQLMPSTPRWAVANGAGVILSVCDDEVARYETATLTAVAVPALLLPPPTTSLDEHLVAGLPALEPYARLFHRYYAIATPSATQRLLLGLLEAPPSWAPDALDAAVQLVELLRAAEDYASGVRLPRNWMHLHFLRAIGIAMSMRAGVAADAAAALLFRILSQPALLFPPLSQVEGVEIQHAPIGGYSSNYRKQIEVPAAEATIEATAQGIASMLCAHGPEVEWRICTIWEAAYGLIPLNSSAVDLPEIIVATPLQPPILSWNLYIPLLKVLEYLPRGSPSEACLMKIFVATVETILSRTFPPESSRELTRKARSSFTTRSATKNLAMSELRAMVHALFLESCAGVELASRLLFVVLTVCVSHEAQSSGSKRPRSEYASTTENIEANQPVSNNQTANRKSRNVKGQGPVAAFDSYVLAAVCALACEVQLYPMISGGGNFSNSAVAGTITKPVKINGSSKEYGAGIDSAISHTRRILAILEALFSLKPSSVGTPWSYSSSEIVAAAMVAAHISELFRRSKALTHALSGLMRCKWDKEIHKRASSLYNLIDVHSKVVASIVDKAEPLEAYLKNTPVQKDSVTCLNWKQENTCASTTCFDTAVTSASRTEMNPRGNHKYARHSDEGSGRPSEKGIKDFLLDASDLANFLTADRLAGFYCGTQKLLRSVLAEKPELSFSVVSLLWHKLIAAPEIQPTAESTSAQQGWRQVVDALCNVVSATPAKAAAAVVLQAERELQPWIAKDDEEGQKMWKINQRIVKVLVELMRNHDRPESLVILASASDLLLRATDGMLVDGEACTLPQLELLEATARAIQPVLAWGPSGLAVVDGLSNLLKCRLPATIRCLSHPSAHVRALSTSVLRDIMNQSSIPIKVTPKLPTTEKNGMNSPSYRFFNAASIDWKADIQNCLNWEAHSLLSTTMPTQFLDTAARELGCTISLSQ
Briefly: co-IP; transient co-expression in N. benthamiana, continuous light or dark for 24 hr; GI-GFP precipitated with GFP antibody, ZTL variants detected with HA antibody.

Sequences of proteins named here, by UniProt entry; tags and fusion partners are left off.
UniProt Q9FHW7: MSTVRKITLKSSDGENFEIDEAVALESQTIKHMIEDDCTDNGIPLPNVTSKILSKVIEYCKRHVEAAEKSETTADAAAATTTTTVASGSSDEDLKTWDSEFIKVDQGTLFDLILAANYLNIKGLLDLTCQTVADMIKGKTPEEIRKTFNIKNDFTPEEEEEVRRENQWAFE

In assay [3] the target is ARABIDOPSIS SKP1-LIKE 2 (ASK2) (Arabidopsis thaliana) (UniProt Q9FHW7). The experiment in a line: co-IP; transient co-expression in N. benthamiana, light or darkness; precipitated with anti-FLAG, ZTL variants detected with anti-HA antibody.

Substitutions are numbered along the chain they refer to. Names and notes keep the numbering of the source. These are yes or no findings as the source states them, for the method shown. For some of these results: In cells and extracts the contact can be indirect. Some binding calls cover weakened binding; strength is not graded here. For some of these results: Where a sequence is shown, tags or fusion partners need not be part of it.

B1: ZTL 29–165 I151R (domain or fragment, UniProt Q94BT6 29-165)
chain: GGPIPYPVGNLLHTAPCGFVVTDAVEPDQPIIYVNTVFEMVTGYRAEEVLGGNCRFLQCRGPFAKRRHPLVDSMVVSEIRKCIDEGIEFQGELLNFRKDGSPLMNRLRLTPIYGDDDTITHIRGIQFFIETDIDLGP
For B1, the binding result in assay [1] is “no binding”.

B2: HA-ZTL (G80R) (protein, UniProt Q94BT6 1-609)
chain: MEWDSGSDLSADDASSLADDEEGGLFPGGGPIPYPVGNLLHTAPCGFVVTDAVEPDQPIIYVNTVFEMVTGYRAEEVLGRNCRFLQCRGPFAKRRHPLVDSMVVSEIRKCIDEGIEFQGELLNFRKDGSPLMNRLRLTPIYGDDDTITHIIGIQFFIETDIDLGPVLGSSTKEKSIDGIYSALAAGERNVSRGMCGLFQLSDEVVSMKILSRLTPRDVASVSSVCRRLYVLTKNEDLWRRVCQNAWGSETTRVLETVPGAKRLGWGRLARELTTLEAAAWRKLSVGGSVEPSRCNFSACAVGNRVVLFGGEGVNMQPMNDTFVLDLNSDYPEWQHVKVSSPPPGRWGHTLTCVNGSNLVVFGGCGQQGLLNDVFVLNLDAKPPTWREISGLAPPLPRSWHSSCTLDGTKLIVSGGCADSGVLLSDTFLLDLSIEKPVWREIPAAWTPPSRLGHTLSVYGGRKILMFGGLAKSGPLKFRSSDVFTMDLSEEEPCWRCVTGSGMPGAGNPGGVAPPPRLDHVAVNLPGGRILIFGGSVAGLHSASQLYLLDPTEDKPTWRILNIPGRPPRFAWGHGTCVVGGTRAIVLGGQTGEEWMLSELHELSLASYLT
Consider B2, for which the binding result in assay [2] and in assay [3] was “binds” throughout.

B3: HA-ZTL (V48I) (protein, UniProt Q94BT6 1-609)
chain: B2 chain with V48I, R80G
For B3, the binding entry in assay [2] is given as “binds weakly”; in assay [3], “binds”.

B4: HA-tagged ZTL G46S (protein, UniProt Q94BT6 1-609)
chain: B2 chain with G46S, R80G
With B4, the binding result in assay [2] and in assay [3] was “binds” each time.
